Results taken from PubChem BioAssay AID602313 (National Center for Advancing Translational Sciences (NCATS), 2012).
The whole screen tested about 390,000 compounds, of which about 760 (0.19%) were called active. The inconclusive results got no clear call from the source; some entries with a clear call stand among them for comparison. Calls follow the shape of the dose curve; as a rule, active = well fitted inhibition curve with a large enough effect; inconclusive = small, poorly fitted or top-dose-only effect; inactive = flat fitted curve, though single readings scatter. Where the call is inconclusive, the potency comes from a doubtful curve fit.

test: qHTS for Inhibitors of Vif-A3F Interactions: qHTS; settings: HeLa A3F-eYFP + Vif (tagged APOBEC3F with the HIV-1 protein that degrades it), YFP fluorescence increase; series mostly up to 46.1 µM; activity, negative = active: at the top concentration; also: nearly all actives have a fitted effect of over 65% in size; as to activity, negative = active: % of control where 0% means no effect
Summary of the method: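 HeLa cells stably expressing Vif plus C-terminally eYFP-tagged A3F were seeded, incubated overnight at 37 deg C, dosed with compound, incubated overnight again at 37 deg C. Yellow fluorescence (Ex 488/Em 500-530) reported blocked Vif-mediated A3F-eYFP degradation.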
Potency is read from the fitted curve at half-maximal effect.

| SMILES | activity, negative = active | Potency |
| --- | --- | --- |
| Cc1ccccc1N1C(=O)CC2(CCCC2)CC1=O | inactive: 12.5% | – |
| COc1ccc2c(c1)-c1nc(/N=C/c3ccc(O)c(OC)c3)sc1CC2 | – | inconclusive: 7.94 µM [inhibitor, partial curve] |
| O=C(CSc1ncn[nH]1)Nc1ccc([N+](=O)[O-])cc1Br | – | inconclusive: 2.51 µM [inhibitor, partial curve, poor fit] |
| COc1cccc(CNC(=O)COC(=O)c2nc(Cl)c(Cl)c(Cl)c2Cl)c1 | – | inconclusive: 35.5 µM [inhibitor, single point] |
| O=C(c1cccs1)N1CCN(c2ccc(Cl)cc2)CC1 | – | inconclusive: 2.24 µM [inhibitor, partial curve, poor fit] |
| Cc1c(-c2nc(N)nc(Nc3ccc(F)cc3)n2)oc2ccccc12 | – | inconclusive: 25.1 µM [inhibitor, single point] |
| CC(C)(C)c1ccc(C(=O)Nc2cccc3ncccc23)cc1 | – | inconclusive: 15.8 µM [inhibitor, single point] |
| Cn1c(SCC(=O)NCc2ccc3c(c2)OCO3)ncc(C(=O)Nc2ccc(F)cc2)c1=O | – | inconclusive: 8.91 µM [inhibitor, partial curve, poor fit] |
| O=C(N/N=C/c1cc(Br)cc(Br)c1O)c1ccncc1 | – | inconclusive: 2.51 µM [inhibitor, partial curve, poor fit] |
| O=C(Oc1coc(CSc2ncccn2)cc1=O)c1cccc([N+](=O)[O-])c1 | inactive: -15.7% | – |
| COc1ccc(CC(=O)O/N=C(\N)Cc2cccc3ccccc23)cc1 | – | inconclusive: 25.1 µM [inhibitor, single point] |
| Cc1sc2nc(CSC(C)C(=O)NC3(C#N)CCCCC3)[nH]c(=O)c2c1C (stereo not given) | – | inconclusive: 12.6 µM [inhibitor, single point] |
| Nc1c(-c2cccs2)cnc2c(-c3ccc(F)cc3)cnn12 | – | inconclusive: 11.2 µM [inhibitor, single point] |
| O=S(=O)(NC(=S)c1ccccc1)c1ccc(Cl)cc1 | – | inconclusive: 3.16 µM [inhibitor, single point] |
| O=C(NCCCN1CCOCC1)c1cc2ccccc2cc1O | – | inconclusive: 0.562 µM [inhibitor, full curve, poor fit] |
| O=C1CN(C(=O)c2ccccc2)c2ccccc2N1 | inactive: 2.82% | – |
| CCCCn1c(N)c(N(CCC(C)C)C(=O)c2ccc([N+](=O)[O-])s2)c(=O)[nH]c1=O | – | inconclusive: 20 µM [inhibitor, partial curve, poor fit] |
| CC(C)CSC1=NSC2=NC(=O)/C(=C\c3ccccc3)C(=N)N12 | – | inconclusive: 35.5 µM [inhibitor, single point] |
| c1ccc2c(c1)ncc1cccn12 | inactive: -2.17% | – |
| CC(Oc1ccc(Br)cc1)C(=O)Nc1nc(-c2ccccn2)cs1 (stereo not given) | – | inconclusive: 3.16 µM [inhibitor, single point] |
| CSc1ccccc1C(=O)Nc1ncn[nH]1 | inactive: -18.9% | – |
| CC(C)SC1=NC(C)(C)C=C(/C=C/c2ccc(Cl)cc2Cl)N1 | inactive: -8.56% | – |
| Cc1cc(C)c2nc(SCC(=O)NCC3CCCO3)c(C#N)cc2c1 (stereo not given) | inactive: 0.0533% | – |
| c1ccc(N=NC2=NN(c3ccccc3)CS2)cc1 | – | active: 3.98 µM |

| SMILES | activity, negative = active | Potency |
| --- | --- | --- |
| Cc1ccc(NC(=S)NCCc2ccccc2)nc1 | – | inconclusive: 7.94 µM [inhibitor, partial curve, poor fit] |
| c1ccc2c(c1)Nc1cc3ccccc3cc1S2 | inactive: 0.977% | – |
| Fc1ccc(F)c(Nc2c3c(nc4ccc(Cl)cc24)CCC3)c1 | – | inconclusive: 17.8 µM [inhibitor, single point] |
| CCn1c(=S)sc2c(=O)n(CC(=O)Nc3cccc(Cl)c3)c(C)nc21 | – | inconclusive: 28.2 µM [inhibitor, single point] |
| CCn1c(O)c(N=NC(=O)C(O)c2ccccc2)c2ccccc21 (stereo not given) | – | inconclusive: 11.2 µM [inhibitor, partial curve] |
| NC(=S)NN=C1C2CC3CC(C2)CC1C3 | – | inconclusive: 35.5 µM [inhibitor, partial curve, poor fit] |
| COc1ccc(NC(=O)c2cc(C)no2)cc1 | inactive: 3.99% | – |
| COc1ccc2c(c1)CCCC(Br)C2=O (stereo not given) | – | inconclusive: 35.5 µM [inhibitor, single point] |
| O=C(NC(=S)Nc1ccc(N2CCCCC2)cc1)c1ccc2c(c1)OCCO2 | inactive: -5.27% | – |
| O=C(Cc1c(Cl)cccc1Cl)OCc1ccccn1 | – | inconclusive: 35.5 µM [inhibitor, single point] |
| CCN(CC)Cc1c(O)c(Cl)cc2c(C)c(C)c(=O)oc12 | inactive: -2.71% | – |
| Cc1ccc(N=Nc2[nH]c3ccccc3c2O)cc1 | – | inconclusive: 35.5 µM [inhibitor, single point] |
| Cc1cc(C(=O)CSc2cccc[n+]2[O-])c(C)n1-c1ccccc1 | – | inconclusive: 15.8 µM [inhibitor, partial curve, poor fit] |
| Cc1ccc(F)cc1NC(=O)CCc1c(C)[nH]c(=O)c(C#N)c1C | – | inconclusive: 35.5 µM [inhibitor, single point] |
| Cc1onc(-c2ccccc2)c1C(=O)NCc1cccc(Cl)c1 | – | inconclusive: 35.5 µM [inhibitor, single point] |
| C/C(=N\NC(=O)c1cc(-c2cccnc2)nc2ccccc12)c1ccccc1O | – | inconclusive: 3.55 µM [inhibitor, single point] |
| CCc1noc(C)c1C(=O)NCCc1ccccc1 | – | inconclusive: 10 µM [inhibitor, partial curve, poor fit] |
| Oc1ccc(O)c(Cc2nc3ccccc3s2)c1 | – | inconclusive: 35.5 µM [inhibitor, partial curve, poor fit] |
| CNc1nc(N/N=C/c2cc3c(cc2[N+](=O)[O-])OCO3)nc(Nc2ccccc2)n1 | – | inconclusive: 22.4 µM [inhibitor, single point] |
| CC(=O)N1CCc2c(sc(NC(=O)C3CC3)c2-c2nc3ccccc3s2)C1 | – | inconclusive: 31.6 µM [inhibitor, single point] |
| C=CCc1cccc(CNc2nc3ccccc3n2C)c1O | inactive: 0.0579% | – |
| N#C/C(=C/c1cccn1-c1cccc(C(=O)O)c1)c1ccc(Cl)cc1 | inactive: 13.8% | – |
| COC(=O)c1cc(-c2cccc([N+](=O)[O-])c2)c2c(=O)n(C)c(=O)n(C)c2n1 | – | inconclusive: 25.1 µM [inhibitor, single point] |
| Cc1ccc(Nc2ccc([N+](=O)[O-])ccc2=O)cc1 | – | inconclusive: 35.5 µM [inhibitor, single point] |

| SMILES | activity, negative = active | Potency |
| --- | --- | --- |
| NC(=O)CC(NC(=O)Cc1ccc(Cl)cc1)c1ccc(NCc2ccccc2)c([N+](=O)[O-])c1 (stereo not given) | – | inconclusive: 35.5 µM [inhibitor, single point] |
| CCC(=O)NC(C)c1cc(Cl)c2cccnc2c1O (stereo not given) | – | inconclusive: 28.2 µM [inhibitor, single point] |
| CN(CCC#N)C(=O)COC(=O)c1c2c(nc3ccccc13)/C(=C\c1ccco1)CC2 | – | inconclusive: 35.5 µM [inhibitor, single point] |
| CC(=O)c1c(C)[nH]c(C(=O)CSc2ncnc3sc(-c4ccccc4)cc23)c1C | – | inconclusive: 22.4 µM [inhibitor, partial curve, poor fit] |
| CCN(/C=N/c1sc2c(c1C#N)CCCCC2)CC | inactive: 1.4% | – |
| CCC(Sc1nc2ccccc2[nH]1)C(=O)Nc1ccc(NC(C)=O)cc1 (stereo not given) | – | inconclusive: 17.8 µM [inhibitor, partial curve, poor fit] |
| CCc1nc2ccccc2n1CCCCOc1ccc(Cl)cc1 | – | inconclusive: 35.5 µM [inhibitor, single point] |
| CCCCN(CCCC)S(=O)(=O)c1ccc(C(=O)Nc2sc3c(c2C(N)=O)CCN(CC)C3)cc1 | – | active: 28.2 µM |
| COc1cccc(CC(=O)OCC(=O)Nc2nnc(-c3ccccc3)o2)c1 | – | inconclusive: 35.5 µM [inhibitor, single point] |
| CCC1CN(C(=O)N2CCC(C(=O)NCCCc3ccccc3)CC2)c2ccccc2O1 (stereo not given) | inactive: -1.66% | – |
| COc1ccc(NC(=O)c2cc3ccc(O)cc3o/c2=N\O)cc1 | – | inconclusive: 15.8 µM [inhibitor, single point] |
| CCN1/C(=C/c2ccc3cc(C)ccc3[n+]2C)Sc2ccc3sccc3c21 | – | inconclusive: 3.55 µM [inhibitor, full curve, poor fit] |
| CCOC(=O)N1CCN(C(=O)c2ccc(S(=O)(=O)NCc3ccco3)cc2)CC1 | – | inconclusive: 5.62 µM [inhibitor, single point] |
| Cc1ccc(S(=O)(=O)N(C)C)cc1NC(=O)COC(=O)CCCOc1ccccc1 | inactive: -2.57% | – |
| CCN(CC)C(=O)c1sc2c(c1C)c(=O)n(-c1ccc(OC)cc1OC)c(=O)n2Cc1cc(C)ccc1C | inactive: 1.19% | – |
| CCOC(=O)c1c(C)n(C)c2ccc(OCC(O)CNCCc3ccccc3)cc12 (stereo not given) | inactive: 0.0631% | – |
| COc1cc(N2CCCC2)c(OC)cc1/C=C1/NC(=S)NC1=O | – | inconclusive: 10 µM [inhibitor, partial curve, poor fit] |
| O=C1c2ccccc2C(=O)N1OS(=O)(=O)c1ccc(F)cc1 | inactive: -13.3% | – |
| O=[N+]([O-])c1ccc(Nc2ccccc2O)c2nonc12 | – | inconclusive: 35.5 µM [inhibitor, single point] |
| CCCOC(=O)NC(CC)COC(=O)Nc1cccc(C)c1C (stereo not given) | inactive: 4.57% | – |
| N#Cc1c(C(F)(F)F)cc(-c2ccco2)nc1SCc1ccncc1 | – | inconclusive: 25.1 µM [inhibitor, single point] |
| CCN(CC)c1ccc(N=C2C=CC(=O)C=C2NC(C)=O)cc1 | – | inconclusive: 8.91 µM [inhibitor, partial curve, poor fit] |
